PubChem BioAssay AID743454, Peter MacCallum Cancer Centre, 2014

Aim: 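Search for knock-downs that restore vorinostat killing in resistant colon cancer cells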 (primary screen)
Cell system: human HCT116-VR colon cancer cells, selected for vorinostat resistance
Reagents: siRNA pool against human genes, 40 nM siRNA pool
Timing: vorinostat for 24 h, read-out about 72 h after transfection
Treatment: vorinostat at 2.5 µM final
Read-out: 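Cell viability by CellTiter-Fluor and caspase 3/7 activity by luminescence, each scaled to mock wells per plate, duplicates averaged, then robust z-scored over all plates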
Reading the numbers: viability robust z-score: higher = more viable cells than screen typical; caspase robust z-score: higher = more caspase 3/7 activity than screen typical
Call rule: 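a knock-down is a hit when classed RV1 or RV2 for lowered viability, or CA1 or CA2 for caspase activation; those lethal without drug were dropped; hits were retested singly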
This is an unselected part of about 18,000 reagents. Over the whole deposit, 450 (2.5%) were called active. 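Single biological run; no consistent viability z cut-off exists, so the class columns, not z-scores, define the calls.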 No sequences are given here.

The opening 6 records, ahead of the listing:
gene | viability hit class | caspase hit class | viability robust z-score | caspase robust z-score | outcome
TRAM1 (translocation associated membrane protein 1) | no change | no change | 0.66 | 2.9 | inactive
STAB2 (stabilin 2) | no change | no change | 0.36 | 0.26 | inactive
RBM18 (RNA binding motif protein 18) | no change | no change | -0.17 | -0.24 | inactive
GAL3ST2 (galactose-3-O-sulfotransferase 2) | no change | no change | -0.84 | 3.2 | inactive
FHDC1 (FH2 domain containing 1) | no change | no change | -1.25 | 0.25 | inactive
ATG4C (autophagy related 4C cysteine peptidase) | no change | no change | -0.85 | 0.92 | inactive

Results, from the first entry:
gene | viability hit class | caspase hit class | viability robust z-score | caspase robust z-score | outcome
TRAM1 (translocation associated membrane protein 1) | no change | no change | 0.66 | 2.9 | inactive
STAB2 (stabilin 2) | no change | no change | 0.36 | 0.26 | inactive
RBM18 (RNA binding motif protein 18) | no change | no change | -0.17 | -0.24 | inactive
GAL3ST2 (galactose-3-O-sulfotransferase 2) | no change | no change | -0.84 | 3.2 | inactive
FHDC1 (FH2 domain containing 1) | no change | no change | -1.25 | 0.25 | inactive
ATG4C (autophagy related 4C cysteine peptidase) | no change | no change | -0.85 | 0.92 | inactive
SAMD14 (sterile alpha motif domain containing 14) | no change | no change | 0.48 | 0.34 | inactive
NSD1 (nuclear receptor binding SET domain protein 1) | no change | no change | 0.33 | -0.61 | inactive
TRIM37 (tripartite motif containing 37) | no change | no change | 1.24 | 0.07 | inactive
WSB1 (WD repeat and SOCS box containing 1) | no change | no change | -0.52 | 0.64 | inactive
LRGUK (leucine rich repeats and guanylate kinase domain containing) | no change | no change | 1.31 | -1.1 | inactive
PCDH9 (protocadherin 9) | no change | no change | 2.01 | -0.24 | inactive
UCN2 (urocortin 2) | no change | no change | -1.01 | 1.02 | inactive
ADGRD1 (adhesion G protein-coupled receptor D1) | no change | no change | 1.03 | 0.87 | inactive
GNG13 (G protein subunit gamma 13) | no change | no change | -0.48 | -0.59 | inactive
ZFP36L1 (ZFP36 like 1 zinc finger CCCH-type) | no change | no change | -0.92 | 1.12 | inactive
SFTPC (surfactant protein C) | no change | no change | 0.34 | -1.12 | inactive
LLGL1 (LLGL scribble cell polarity complex component 1) | no change | no change | 1.07 | -0.78 | inactive
NXT1 (nuclear transport factor 2 like export factor 1) | no change | no change | -1.72 | 2.25 | inactive
UTRN (utrophin) | no change | no change | 0.77 | -0.64 | inactive
MRPL18 (mitochondrial ribosomal protein L18) | no change | no change | 2.03 | -0.9 | inactive
NAGA (alpha-N-acetylgalactosaminidase) | no change | no change | -0.62 | -0.96 | inactive
PRAMEF12 (PRAME family member 12) | no change | no change | -1.41 | 0.22 | inactive
C9orf78 (chromosome 9 open reading frame 78) | no change | no change | 1.43 | -0.52 | inactive
PDE1B (phosphodiesterase 1B) | no change | no change | -1.21 | 0.1 | inactive
TMEM267 (transmembrane protein 267) | no change | no change | -0.6 | -1.15 | inactive
SLC12A6 | no change | no change | 1.4 | -0.6 | inactive
SACK1B (scaffolding CK1 anchoring protein B) | no change | no change | 1.27 | -0.33 | inactive
TSEN2 (tRNA splicing endonuclease subunit 2) | no change | no change | 0.94 | 0.3 | inactive
LUZP2 (leucine zipper protein 2) | no change | no change | 1.47 | 0.6 | inactive
KIF12 (kinesin family member 12) | RV2 (reduced viability) | no change | -3.17 | 2.91 | active
ITM2C (integral membrane protein 2C) | no change | no change | -0.98 | 3.98 | inactive
BANF2 (BANF family member 2) | no change | no change | -0.62 | -0.7 | inactive
LVRN (laeverin) | no change | no change | -0.21 | -1.08 | inactive
BST2 (bone marrow stromal cell antigen 2) | no change | no change | -0.84 | -0.45 | inactive
TPP1 (tripeptidyl peptidase 1) | no change | no change | 0.84 | 0.15 | inactive
USP2 (ubiquitin specific peptidase 2) | no change | no change | -2.27 | 1.61 | inactive
GTPBP6 (GTP binding protein 6) | no change | no change | 0.52 | -0.12 | inactive
PROC (protein C, inactivator of coagulation factors Va and VIIIa) | no change | no change | -1.88 | 2.93 | inactive
KCTD18 (potassium channel tetramerization domain containing 18) | no change | no change | -0.24 | -0.18 | inactive
LEMD1 (LEM domain containing 1) | no change | no change | -0.06 | 0.89 | inactive
YY1AP1 (YY1 associated protein 1) | no change | no change | -0.02 | 2.14 | inactive
GJB7 (gap junction protein beta 7) | no change | no change | -0.14 | -1.17 | inactive
MPV17L2 (MPV17 mitochondrial inner membrane protein like 2) | no change | no change | -0.26 | 0.53 | inactive
OXSM (3-oxoacyl-ACP synthase, mitochondrial) | no change | no change | -2.66 | -0.33 | inactive
STYX (serine/threonine/tyrosine interacting protein) | no change | no change | 0.24 | -0.55 | inactive
TOMM34 (translocase of outer mitochondrial membrane 34) | no change | no change | 0.08 | 2.59 | inactive
PPP1R15B (protein phosphatase 1 regulatory subunit 15B) | no change | no change | -1.95 | -1.12 | inactive
HSDL1 (hydroxysteroid dehydrogenase like 1) | no change | no change | 1.04 | 0.76 | inactive
RPP14 (ribonuclease P/MRP subunit p14) | no change | no change | 0.2 | -0.5 | inactive
QTRT2 (queuine tRNA-ribosyltransferase accessory subunit 2) | no change | no change | -0.26 | 3.64 | inactive
FAM193A (family with sequence similarity 193 member A) | no change | no change | 0.32 | 0.31 | inactive
OR10T2 (olfactory receptor family 10 subfamily T member 2) | no change | no change | -1.56 | 0.15 | inactive
BPNT1 (3'(2'), 5'-bisphosphate nucleotidase 1) | no change | no change | 0.62 | 0.68 | inactive
SATB1 (SATB homeobox 1) | no change | no change | 1.7 | 0.3 | inactive
TBP (TATA-box binding protein) | no change | no change | -0.24 | 0.03 | inactive
ODF2L (outer dense fiber of sperm tails 2 like) | no change | no change | 0.12 | -0.66 | inactive
